From patent US20210002619A1
No constants are given. Whether binding was seen depends on the method and setting. In cells and extracts the contact can be indirect. Some entries that bind do so weakly or less than the wild type.

Chains of the proteins cited; added tags and fusions are not shown. Lines headed by an entry give the natural chain unless they say otherwise; changes in a name come on top.
UniProt P11802: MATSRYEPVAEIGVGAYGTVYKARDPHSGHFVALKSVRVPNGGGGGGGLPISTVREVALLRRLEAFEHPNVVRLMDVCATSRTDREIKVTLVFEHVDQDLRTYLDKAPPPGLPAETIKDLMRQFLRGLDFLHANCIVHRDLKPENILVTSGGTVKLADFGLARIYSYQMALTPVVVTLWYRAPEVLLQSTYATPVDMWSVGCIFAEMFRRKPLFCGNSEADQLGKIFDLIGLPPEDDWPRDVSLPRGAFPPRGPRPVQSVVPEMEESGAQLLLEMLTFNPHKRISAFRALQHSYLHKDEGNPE
UniProt P24385: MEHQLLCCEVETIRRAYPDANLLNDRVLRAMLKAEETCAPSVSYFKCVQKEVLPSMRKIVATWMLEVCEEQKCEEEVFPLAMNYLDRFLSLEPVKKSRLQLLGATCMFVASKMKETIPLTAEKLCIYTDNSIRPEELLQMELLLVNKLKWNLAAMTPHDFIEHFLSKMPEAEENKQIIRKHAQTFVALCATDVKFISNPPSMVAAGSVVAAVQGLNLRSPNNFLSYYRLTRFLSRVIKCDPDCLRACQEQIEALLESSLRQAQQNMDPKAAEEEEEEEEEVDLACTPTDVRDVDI
UniProt P46527: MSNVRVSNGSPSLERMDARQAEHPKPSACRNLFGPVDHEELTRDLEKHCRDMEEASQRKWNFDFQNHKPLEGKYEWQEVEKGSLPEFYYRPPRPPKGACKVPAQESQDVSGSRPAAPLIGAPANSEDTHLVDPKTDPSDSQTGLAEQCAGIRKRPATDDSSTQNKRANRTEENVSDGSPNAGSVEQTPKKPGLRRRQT

Key:
[1] = biological target: Cdk4-CycD1 dimeric complex of Examples 1 and 2 (Cdk4 variant SEQ ID NO: 48 and CycD1 variant SEQ ID NO: 56) (human) (UniProt P11802); test: co-expression in Sf9 cells; co-purification by GST affinity and anion exchange chromatography
[2] = biological target: CycD1 variant (amino acids 19-267 of full-length wild-type CycD1) (Homo sapiens (Human)) (UniProt P24385); test: co-expression in Sf9 cells; untagged CycD1 co-purified with GST-Cdk4 by GST affinity and anion exchange chromatography

| binding [1] | binding [2] | Substance |
| --- | --- | --- |
| binds |  | Engineered p27 (amino acids 25-98 of p27 with Y74E) (from UniProt P46527 25-98) |
|  | binds | Human Cdk4 variant (T172E, amino acids 44 to 46 deleted, G43E and G47E) (from UniProt P11802 2-303) (enzyme) |
